Source: the supplement of paper PMC12823440, “Inhibitors supercharge kinase turnover through native proteolytic circuits” (Nature, 2025)
The other results are listed elsewhere or left out. The calls rarely recur for the same compound in another form.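 Kinases, fused to nanoluciferase, were expressed in K562 cells; luminescence was measured every 4 h from 2 to 18 h as percent of control (DMSO = 100%, positive control = 0%). A time point is decreased if signal falls significantly (2 sigma). Hits were called by the authors by a rule that is not shown; the count of time points alone does not decide it.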

Chains of the proteins cited; added tags and fusions are not shown. Lines headed by an entry give the natural chain unless they say otherwise; changes in a name come on top.
UniProt Q15418, whole entry: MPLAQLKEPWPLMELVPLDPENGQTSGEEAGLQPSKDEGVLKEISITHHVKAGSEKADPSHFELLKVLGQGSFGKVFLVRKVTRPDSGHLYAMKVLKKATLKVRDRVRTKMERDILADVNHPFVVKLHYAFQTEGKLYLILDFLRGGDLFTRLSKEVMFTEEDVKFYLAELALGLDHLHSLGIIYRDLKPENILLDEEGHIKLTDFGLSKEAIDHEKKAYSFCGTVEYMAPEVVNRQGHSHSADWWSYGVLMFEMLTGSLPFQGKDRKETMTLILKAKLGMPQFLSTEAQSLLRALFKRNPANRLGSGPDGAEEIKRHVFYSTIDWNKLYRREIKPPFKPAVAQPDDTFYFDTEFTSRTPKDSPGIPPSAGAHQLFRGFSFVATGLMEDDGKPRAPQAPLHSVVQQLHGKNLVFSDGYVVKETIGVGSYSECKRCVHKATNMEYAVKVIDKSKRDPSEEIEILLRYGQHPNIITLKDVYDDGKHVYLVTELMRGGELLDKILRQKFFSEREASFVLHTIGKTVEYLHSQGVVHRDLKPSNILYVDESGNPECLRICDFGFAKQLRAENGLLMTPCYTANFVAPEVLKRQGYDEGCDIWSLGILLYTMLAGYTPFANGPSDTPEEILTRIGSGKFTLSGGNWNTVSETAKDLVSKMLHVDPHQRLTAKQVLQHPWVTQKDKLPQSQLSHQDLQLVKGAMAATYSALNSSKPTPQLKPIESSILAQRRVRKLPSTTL
UniProt Q15118, whole entry, looked up: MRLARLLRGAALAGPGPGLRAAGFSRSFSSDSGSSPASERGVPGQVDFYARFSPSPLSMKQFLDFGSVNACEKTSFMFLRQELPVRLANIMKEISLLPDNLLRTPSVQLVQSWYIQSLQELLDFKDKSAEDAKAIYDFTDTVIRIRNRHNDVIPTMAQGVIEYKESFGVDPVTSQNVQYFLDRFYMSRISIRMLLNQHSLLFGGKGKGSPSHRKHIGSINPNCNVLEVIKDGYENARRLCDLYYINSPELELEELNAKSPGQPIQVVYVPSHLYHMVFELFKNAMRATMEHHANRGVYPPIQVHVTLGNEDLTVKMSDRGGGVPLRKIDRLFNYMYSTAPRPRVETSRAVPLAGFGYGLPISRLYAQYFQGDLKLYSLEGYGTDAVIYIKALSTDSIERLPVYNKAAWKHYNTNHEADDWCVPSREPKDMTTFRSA
UniProt Q00535, whole entry, looked up: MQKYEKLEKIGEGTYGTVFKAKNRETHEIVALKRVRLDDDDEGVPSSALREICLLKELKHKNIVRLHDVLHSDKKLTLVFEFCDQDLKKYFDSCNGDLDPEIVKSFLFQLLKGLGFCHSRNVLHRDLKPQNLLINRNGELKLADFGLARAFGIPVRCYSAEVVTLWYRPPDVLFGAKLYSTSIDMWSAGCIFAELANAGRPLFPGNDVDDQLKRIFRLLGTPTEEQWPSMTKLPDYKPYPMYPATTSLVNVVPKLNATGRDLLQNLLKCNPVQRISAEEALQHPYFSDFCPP
UniProt Q13555: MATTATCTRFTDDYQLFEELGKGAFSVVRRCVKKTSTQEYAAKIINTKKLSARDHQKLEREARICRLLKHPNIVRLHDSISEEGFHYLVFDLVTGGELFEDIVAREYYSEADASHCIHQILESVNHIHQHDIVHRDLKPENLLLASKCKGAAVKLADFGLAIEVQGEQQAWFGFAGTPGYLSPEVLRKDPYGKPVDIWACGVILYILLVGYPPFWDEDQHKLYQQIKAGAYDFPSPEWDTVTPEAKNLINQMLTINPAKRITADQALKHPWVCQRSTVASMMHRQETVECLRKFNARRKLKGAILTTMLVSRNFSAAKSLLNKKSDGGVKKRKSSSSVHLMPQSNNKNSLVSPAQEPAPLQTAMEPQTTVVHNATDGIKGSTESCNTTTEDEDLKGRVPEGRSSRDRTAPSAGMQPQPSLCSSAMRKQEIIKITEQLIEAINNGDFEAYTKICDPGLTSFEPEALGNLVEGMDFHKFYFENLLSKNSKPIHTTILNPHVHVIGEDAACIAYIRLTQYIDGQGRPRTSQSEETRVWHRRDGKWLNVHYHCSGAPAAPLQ
UniProt P42356, whole entry, looked up: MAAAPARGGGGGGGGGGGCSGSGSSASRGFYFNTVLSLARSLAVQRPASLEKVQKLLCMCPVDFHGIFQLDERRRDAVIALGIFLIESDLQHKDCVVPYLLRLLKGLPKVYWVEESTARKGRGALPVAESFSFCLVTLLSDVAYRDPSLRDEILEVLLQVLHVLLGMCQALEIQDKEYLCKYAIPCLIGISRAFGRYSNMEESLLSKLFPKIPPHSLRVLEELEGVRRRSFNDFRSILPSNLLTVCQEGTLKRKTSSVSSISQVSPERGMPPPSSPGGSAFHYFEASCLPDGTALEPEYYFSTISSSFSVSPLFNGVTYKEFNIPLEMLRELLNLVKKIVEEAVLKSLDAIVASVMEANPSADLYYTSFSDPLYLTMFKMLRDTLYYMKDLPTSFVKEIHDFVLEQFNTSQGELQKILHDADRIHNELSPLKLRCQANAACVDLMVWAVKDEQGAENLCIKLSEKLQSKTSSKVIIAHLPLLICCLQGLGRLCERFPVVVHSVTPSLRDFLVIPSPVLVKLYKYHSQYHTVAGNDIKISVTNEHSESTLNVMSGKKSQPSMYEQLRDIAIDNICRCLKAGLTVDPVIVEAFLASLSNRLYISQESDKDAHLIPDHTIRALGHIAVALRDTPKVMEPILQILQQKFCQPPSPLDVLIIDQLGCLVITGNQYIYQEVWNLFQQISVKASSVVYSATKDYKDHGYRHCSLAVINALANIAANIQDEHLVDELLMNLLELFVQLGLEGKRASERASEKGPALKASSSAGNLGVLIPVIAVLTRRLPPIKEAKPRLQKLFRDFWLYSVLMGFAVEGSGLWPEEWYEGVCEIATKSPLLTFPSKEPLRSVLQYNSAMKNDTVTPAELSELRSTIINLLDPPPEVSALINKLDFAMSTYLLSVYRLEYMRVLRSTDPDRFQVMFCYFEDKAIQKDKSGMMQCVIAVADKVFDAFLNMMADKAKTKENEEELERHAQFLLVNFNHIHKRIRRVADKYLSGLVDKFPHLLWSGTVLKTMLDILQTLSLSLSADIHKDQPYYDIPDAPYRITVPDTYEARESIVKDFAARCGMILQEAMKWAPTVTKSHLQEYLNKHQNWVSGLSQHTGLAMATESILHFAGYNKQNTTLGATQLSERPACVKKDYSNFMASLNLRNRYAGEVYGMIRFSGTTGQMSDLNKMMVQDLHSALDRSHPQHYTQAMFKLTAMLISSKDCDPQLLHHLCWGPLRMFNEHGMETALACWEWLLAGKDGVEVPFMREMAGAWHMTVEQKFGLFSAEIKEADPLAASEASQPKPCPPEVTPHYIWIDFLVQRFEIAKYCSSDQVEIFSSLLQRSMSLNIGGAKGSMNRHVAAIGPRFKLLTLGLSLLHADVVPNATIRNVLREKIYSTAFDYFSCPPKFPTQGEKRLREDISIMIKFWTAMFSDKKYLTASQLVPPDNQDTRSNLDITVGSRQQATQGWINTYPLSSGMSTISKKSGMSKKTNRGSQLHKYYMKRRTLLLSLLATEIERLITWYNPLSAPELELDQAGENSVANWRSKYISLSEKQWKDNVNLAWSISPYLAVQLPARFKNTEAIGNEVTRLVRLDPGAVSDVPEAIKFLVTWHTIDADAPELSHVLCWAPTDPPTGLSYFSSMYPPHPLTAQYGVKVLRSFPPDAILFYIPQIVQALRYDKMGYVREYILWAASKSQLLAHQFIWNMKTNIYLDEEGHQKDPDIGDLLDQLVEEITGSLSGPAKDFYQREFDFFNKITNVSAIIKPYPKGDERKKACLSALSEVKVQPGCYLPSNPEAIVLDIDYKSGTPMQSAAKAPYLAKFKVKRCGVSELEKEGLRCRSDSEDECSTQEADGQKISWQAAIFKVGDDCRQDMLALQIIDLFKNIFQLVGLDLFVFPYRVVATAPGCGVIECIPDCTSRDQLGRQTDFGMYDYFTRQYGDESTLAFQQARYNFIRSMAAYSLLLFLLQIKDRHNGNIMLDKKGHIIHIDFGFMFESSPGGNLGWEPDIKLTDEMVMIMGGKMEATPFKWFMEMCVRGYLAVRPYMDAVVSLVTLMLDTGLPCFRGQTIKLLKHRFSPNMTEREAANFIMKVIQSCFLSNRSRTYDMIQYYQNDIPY

Assays:
Assay in all cases: number of time points (of 5) at which kinase-Nluc abundance scored as decreased, DMSO-normalised (count); higher = more persistent destabilization
Umbralisib = compound: CC(C)Oc1ccc(-c2nn([C@@H](C)c3oc4ccc(F)cc4c(=O)c3-c3cccc(F)c3)c3ncnc(N)c23)cc1F [Umbralisib]; settings: 2.5 µM; K562; 2-18 h
Bucladesine (calcium) = compound: CCCC(=O)Nc1ncnc2c1ncn2[C@@H]1O[C@@H]2COP(=O)(O)O[C@H]2[C@H]1OC(=O)CCC [Bucladesine (calcium)]; settings: 10 µM; K562; 2-18 h
Bucladesine (sodium) = compound: CCCC(=O)Nc1ncnc2c1ncn2[C@@H]1O[C@@H]2COP(=O)(O)O[C@H]2[C@H]1OC(=O)CCC [Bucladesine (sodium)]; settings: 10 µM; K562; 2-18 h
[1] = compound: CCCCCCCCc1ccc(CCC(N)(CO)CO)cc1 [Fingolimod (hydrochloride)]; settings: 2.5 µM; K562; 2-18 h
Fingolimod = compound: CCCCCCCCc1ccc(CCC(N)(CO)CO)cc1 [Fingolimod]; settings: 2.5 µM; K562; 2-18 h
[2] = compound: CCN(CC)CC(=O)Nc1c(C)cccc1C [Lidocaine (hydrochloride)]; settings: 10 µM; K562; 2-18 h
Lidocaine = compound: CCN(CC)CC(=O)Nc1c(C)cccc1C [Lidocaine]; settings: 10 µM; K562; 2-18 h
[3] = compound: CCN(CC)Cc1ccc(OC)c(-c2cc3c(-c4ccc(C(=O)O)c(C(C)C)c4)ccnc3[nH]2)c1; settings: K562, 2-18 h
Baricitinib (phosphate) = compound: CCS(=O)(=O)N1CC(CC#N)(n2cc(-c3ncnc4[nH]ccc34)cn2)C1 [Baricitinib (phosphate)]; settings: 10 µM; K562; 2-18 h
Baricitinib = compound: CCS(=O)(=O)N1CC(CC#N)(n2cc(-c3ncnc4[nH]ccc34)cn2)C1 [Baricitinib]; settings: 10 µM; K562; 2-18 h
[4] = compound: CCS(=O)(=O)N1CCN(c2ccc(Nc3ncc(C(N)=O)c(NC4CC4)n3)cc2)CC1 [Cerdulatinib (hydrochloride)]; settings: 10 µM; K562; 2-18 h
Cerdulatinib = compound: CCS(=O)(=O)N1CCN(c2ccc(Nc3ncc(C(N)=O)c(NC4CC4)n3)cc2)CC1 [Cerdulatinib]; settings: 10 µM; K562; 2-18 h
[5] = compound: CCc1nc(C(N)=O)c(Nc2ccc(N3CCC(N4CCN(C)CC4)CC3)c(OC)c2)nc1NC1CCOCC1 [Gilteritinib hemifumarate]; settings: 2 µM; K562; 2-18 h
Gilteritinib = compound: CCc1nc(C(N)=O)c(Nc2ccc(N3CCC(N4CCN(C)CC4)CC3)c(OC)c2)nc1NC1CCOCC1 [Gilteritinib]; settings: 2 µM; K562; 2-18 h
[6] = compound: CN(C)C(=N)NC(=N)N [Metformin (hydrochloride)]; settings: 10 µM; K562; 2-18 h
Metformin = compound: CN(C)C(=N)NC(=N)N [Metformin]; settings: 10 µM; K562; 2-18 h
Ribociclib hydrochloride = compound: CN(C)C(=O)c1cc2cnc(Nc3ccc(N4CCNCC4)cn3)nc2n1C1CCCC1 [Ribociclib hydrochloride]; settings: 2.5 µM; K562; 2-18 h
[7] = compound: CN(C)C(=O)c1cc2cnc(Nc3ccc(N4CCNCC4)cn3)nc2n1C1CCCC1 [Ribociclib succinate hydrate]; settings: 2.5 µM; K562; 2-18 h
Ribociclib succinate = compound: CN(C)C(=O)c1cc2cnc(Nc3ccc(N4CCNCC4)cn3)nc2n1C1CCCC1 [Ribociclib succinate]; settings: 10 µM; K562; 2-18 h
Ribociclib = compound: CN(C)C(=O)c1cc2cnc(Nc3ccc(N4CCNCC4)cn3)nc2n1C1CCCC1 [Ribociclib]; settings: 10 µM; K562; 2-18 h

For RPS6KA1 (UniProt Q15418), the “number of time points” value (Umbralisib) was 0, the “number of time points” value (Bucladesine (calcium)) was 0 and the “number of time points” value (Bucladesine (sodium)) was 0. For the same target, the “number of time points” value [1] was 0, the “number of time points” value (Fingolimod) was 0 and the “number of time points” value [2] was 0. For the same target, the “number of time points” value (Lidocaine) was 0, the “number of time points” value ([3]; 2.5 µM) was 0 and the “number of time points” value ([3]; 10 µM) was 0. For the same target, the “number of time points” value (Baricitinib (phosphate)) was 0, the “number of time points” value (Baricitinib) was 0 and the “number of time points” value [4] was 0. The “number of time points” value (Cerdulatinib) was 0, the “number of time points” value [5] was 0 and the “number of time points” value (Gilteritinib) was 0. For the same target, the “number of time points” value [6] was 0, the “number of time points” value (Metformin) was 0 and the “number of time points” value (Ribociclib hydrochloride) was 0. The “number of time points” value [7] was 0, the “number of time points” value (Ribociclib succinate) was 0 and the “number of time points” value (Ribociclib) was 0.

PDK1 (UniProt Q15118) was tested, and the “number of time points” value (Umbralisib) was 0, the “number of time points” value (Bucladesine (calcium)) was 0 and the “number of time points” value (Bucladesine (sodium)) was 0. The “number of time points” value [1] was 0, the “number of time points” value (Fingolimod) was 0 and the “number of time points” value [2] was 0. For the same target, the “number of time points” value (Lidocaine) was 0, the “number of time points” value ([3]; 2.5 µM) was 0 and the “number of time points” value ([3]; 10 µM) was 0. For the same target, the “number of time points” value (Baricitinib (phosphate)) was 0, the “number of time points” value (Baricitinib) was 0 and the “number of time points” value [4] was 0. For the same target, the “number of time points” value (Cerdulatinib) was 0, the “number of time points” value [5] was 0 and the “number of time points” value (Gilteritinib) was 0. For the same target, the “number of time points” value [6] was 0, the “number of time points” value (Metformin) was 0 and the “number of time points” value (Ribociclib hydrochloride) was 0. The “number of time points” value [7] was 0, the “number of time points” value (Ribociclib succinate) was 0 and the “number of time points” value (Ribociclib) was 0.

For “RAF1_S257L (clone: RAF1_mut) (UniProt P04049)”, the “number of time points” value (Umbralisib) was 0, the “number of time points” value (Bucladesine (calcium)) was 0 and the “number of time points” value (Bucladesine (sodium)) was 0. For the same target, the “number of time points” value [1] was 0, the “number of time points” value (Fingolimod) was 0 and the “number of time points” value [2] was 0. For the same target, the “number of time points” value (Lidocaine) was 0, the “number of time points” value ([3]; 2.5 µM) was 1 and the “number of time points” value ([3]; 10 µM) was 3. The “number of time points” value (Baricitinib (phosphate)) was 0, the “number of time points” value (Baricitinib) was 0 and the “number of time points” value [4] was 4. For the same target, the “number of time points” value (Cerdulatinib) was 0, the “number of time points” value [5] was 0 and the “number of time points” value (Gilteritinib) was 0. For the same target, the “number of time points” value [6] was 0, the “number of time points” value (Metformin) was 0 and the “number of time points” value (Ribociclib hydrochloride) was 0. The “number of time points” value [7] was 0, the “number of time points” value (Ribociclib succinate) was 0 and the “number of time points” value (Ribociclib) was 0.

CDK5 (UniProt Q00535) was tested, and the “number of time points” value (Umbralisib) was 0, the “number of time points” value (Bucladesine (calcium)) was 0 and the “number of time points” value (Bucladesine (sodium)) was 0. For the same target, the “number of time points” value [1] was 0, the “number of time points” value (Fingolimod) was 0 and the “number of time points” value [2] was 0. For the same target, the “number of time points” value (Lidocaine) was 0, the “number of time points” value ([3]; 2.5 µM) was 0 and the “number of time points” value ([3]; 10 µM) was 0. The “number of time points” value (Baricitinib (phosphate)) was 0, the “number of time points” value (Baricitinib) was 0 and the “number of time points” value [4] was 0. The “number of time points” value (Cerdulatinib) was 0, the “number of time points” value [5] was 0 and the “number of time points” value (Gilteritinib) was 0. The “number of time points” value [6] was 0, the “number of time points” value (Metformin) was 0 and the “number of time points” value (Ribociclib hydrochloride) was 0. The “number of time points” value [7] was 0, the “number of time points” value (Ribociclib succinate) was 0 and the “number of time points” value (Ribociclib) was 0.

With BRAF_V600E the “number of time points” value (Umbralisib) was 0, the “number of time points” value (Bucladesine (calcium)) was 0 and the “number of time points” value (Bucladesine (sodium)) was 0. For the same target, the “number of time points” value [1] was 0, the “number of time points” value (Fingolimod) was 0 and the “number of time points” value [2] was 0. For the same target, the “number of time points” value (Lidocaine) was 0, the “number of time points” value ([3]; 2.5 µM) was 2 and the “number of time points” value ([3]; 10 µM) was 1. For the same target, the “number of time points” value (Baricitinib (phosphate)) was 0, the “number of time points” value (Baricitinib) was 0 and the “number of time points” value [4] was 3. For the same target, the “number of time points” value (Cerdulatinib) was 1, the “number of time points” value [5] was 0 and the “number of time points” value (Gilteritinib) was 0. The “number of time points” value [6] was 0, the “number of time points” value (Metformin) was 0 and the “number of time points” value (Ribociclib hydrochloride) was 0. The “number of time points” value [7] was 0, the “number of time points” value (Ribociclib succinate) was 0 and the “number of time points” value (Ribociclib) was 0.

With CAMK2G (UniProt Q13555) the “number of time points” value (Umbralisib) was 0, the “number of time points” value (Bucladesine (calcium)) was 0 and the “number of time points” value (Bucladesine (sodium)) was 0. For the same target, the “number of time points” value [1] was 0, the “number of time points” value (Fingolimod) was 0 and the “number of time points” value [2] was 0. The “number of time points” value (Lidocaine) was 0, the “number of time points” value ([3]; 2.5 µM) was 0 and the “number of time points” value ([3]; 10 µM) was 0. For the same target, the “number of time points” value (Baricitinib (phosphate)) was 0, the “number of time points” value (Baricitinib) was 0 and the “number of time points” value [4] was 3. For the same target, the “number of time points” value (Cerdulatinib) was 0, the “number of time points” value [5] was 0 and the “number of time points” value (Gilteritinib) was 0. The “number of time points” value [6] was 0, the “number of time points” value (Metformin) was 0 and the “number of time points” value (Ribociclib hydrochloride) was 0. The “number of time points” value [7] was 0, the “number of time points” value (Ribociclib succinate) was 0 and the “number of time points” value (Ribociclib) was 0.

In the case of PIK4CA (UniProt P42356), the “number of time points” value (Umbralisib) is reported as 0, the “number of time points” value (Bucladesine (calcium)) is reported as 0 and the “number of time points” value (Bucladesine (sodium)) is reported as 0. The “number of time points” value [1] was 0, the “number of time points” value (Fingolimod) was 0 and the “number of time points” value [2] was 0. The “number of time points” value (Lidocaine) was 0, the “number of time points” value ([3]; 2.5 µM) was 0 and the “number of time points” value ([3]; 10 µM) was 0. For the same target, the “number of time points” value (Baricitinib (phosphate)) was 0, the “number of time points” value (Baricitinib) was 0 and the “number of time points” value [4] was 3. For the same target, the “number of time points” value (Cerdulatinib) was 0, the “number of time points” value [5] was 0 and the “number of time points” value (Gilteritinib) was 0. The “number of time points” value [6] was 0, the “number of time points” value (Metformin) was 0 and the “number of time points” value (Ribociclib hydrochloride) was 0. For the same target, the “number of time points” value [7] was 0, the “number of time points” value (Ribociclib succinate) was 0 and the “number of time points” value (Ribociclib) was 0.
